Assay results as given in the supplement of paper PMC8728848.
The other results are listed elsewhere or left out.

Tests used:
Test in all cases: glycan array binding signal (z-score within array); higher = stronger binding
Details in all cases: glycan notation: IUPAC condensed, linker removed
[1] = molecular target: Gal(a1-3)Gal(b1-4)GlcNAc
Summary of the method: (§1)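 The binding signal is a Z-score computed within each array and averaged over linkers. Arrays of the same protein sequence at different concentrations or buffers were also averaged together. Data originate from 3228 arrays in the Consortium for Functional Glycomics database, kept only where the protein sequence was available.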

[2] = molecular target: Gal(a1-3)Gal(b1-4)GlcNAc(b1-2)Man(a1-3)[Gal(a1-3)Gal(b1-4)GlcNAc(b1-2)Man(a1-6)]Man(b1-4)GlcNAc(b1-4)GlcNAc
Summary of the method: as §1

[3] = molecular target: Gal(a1-3)Gal(b1-4)[Fuc(a1-3)]GlcNAc
Summary of the method: as §1

[4] = molecular target: Gal(a1-3)Gal(b1-4)[Fuc(a1-3)]GlcNAc(b1-2)Man(a1-3)[Gal(a1-3)Gal(b1-4)[Fuc(a1-3)]GlcNAc(b1-2)Man(a1-6)]Man(b1-4)GlcNAc(b1-4)GlcNAc
Summary of the method: as §1

[5] = molecular target: Gal(a1-3)GalNAc
Summary of the method: as §1

[6] = molecular target: Gal(a1-3)[Gal(a1-4)]Gal(b1-4)GlcNAc
Summary of the method: as §1

[7] = molecular target: Gal(a1-4)Gal(b1-3)GlcNAc(b1-2)Man(a1-3)[Gal(a1-4)Gal(b1-3)GlcNAc(b1-2)Man(a1-6)]Man(b1-4)GlcNAc(b1-4)GlcNAc
Summary of the method: as §1

[8] = molecular target: Gal(a1-4)Gal(b1-4)Glc
Summary of the method: as §1

[9] = molecular target: Gal(a1-4)Gal(b1-4)GlcNAc
Summary of the method: as §1

[10] = molecular target: Gal(a1-4)Gal(b1-4)GlcNAc(b1-2)Man(a1-3)[Gal(a1-4)Gal(b1-4)GlcNAc(b1-2)Man(a1-6)]Man(b1-4)GlcNAc(b1-4)GlcNAc
Summary of the method: as §1

[11] = molecular target: Gal(a1-4)Gal(b1-4)GlcNAc(b1-3)Gal(b1-4)Glc
Summary of the method: as §1

[12] = molecular target: Gal(a1-4)GlcNAc
Summary of the method: as §1

[13] = molecular target: Gal(a1-6)Glc
Summary of the method: as §1

[14] = molecular target: Gal(b1-2)Gal
Summary of the method: as §1

[15] = molecular target: Gal(b1-3)Gal(b1-4)GlcNAc
Summary of the method: as §1

[16] = molecular target: Gal(b1-3)GalNAc(a1-3)[Fuc(a1-2)]Gal(b1-4)Glc
Summary of the method: as §1

[17] = molecular target: Gal(b1-3)GalNAc(b1-3)Gal
Summary of the method: as §1

[18] = molecular target: Gal(b1-3)GalNAc(b1-3)Gal(a1-4)Gal(b1-4)Glc
Summary of the method: as §1

[19] = molecular target: Gal(b1-3)GalNAc(b1-4)Gal(b1-4)Glc
Summary of the method: as §1

[20] = molecular target: Gal(b1-3)GalNAc(b1-4)[Neu5Ac(a2-3)]Gal(b1-4)Glc
Summary of the method: as §1

[21] = molecular target: Gal(b1-3)GlcNAc
Summary of the method: as §1

[22] = molecular target: Gal(b1-3)GlcNAc(a1-3)Gal(b1-4)GlcNAc
Summary of the method: as §1

[23] = molecular target: Gal(b1-3)GlcNAc(b1-2)Man
Summary of the method: as §1

[24] = molecular target: Gal(b1-3)GlcNAc(b1-2)Man(a1-3)[Gal(b1-3)GlcNAc(b1-2)Man(a1-6)]Man(b1-4)GlcNAc(b1-4)GlcNAc
Summary of the method: as §1

[25] = molecular target: Gal(b1-3)GlcNAc(b1-2)Man(a1-3)[Gal(b1-3)GlcNAc(b1-2)Man(a1-6)]Man(b1-4)GlcNAc(b1-4)[Fuc(a1-6)]GlcNAc
Summary of the method: as §1

[26] = molecular target: Gal(b1-3)GlcNAc(b1-2)Man(a1-3)[GlcNAc(b1-4)][Gal(b1-3)GlcNAc(b1-2)Man(a1-6)]Man(b1-4)GlcNAc(b1-4)GlcNAc
Summary of the method: as §1

[27] = molecular target: Gal(b1-3)GlcNAc(b1-2)[Gal(b1-3)GlcNAc(b1-6)]Man(a1-6)[Gal(b1-3)GlcNAc(b1-2)Man(a1-3)]Man(b1-4)GlcNAc(b1-4)GlcNAc
Summary of the method: as §1

[28] = molecular target: Gal(b1-3)GlcNAc(b1-3)Gal(b1-4)Glc
Summary of the method: as §1

[29] = molecular target: Gal(b1-3)GlcNAc(b1-3)Gal(b1-4)GlcNAc
Summary of the method: as §1

[30] = molecular target: Gal(b1-3)GlcNAc(b1-3)Gal(b1-4)GlcNAc(b1-2)Man(a1-3)[Gal(b1-3)GlcNAc(b1-3)Gal(b1-4)GlcNAc(b1-2)Man(a1-6)]Man(b1-4)GlcNAc(b1-4)GlcNAc
Summary of the method: as §1

[31] = molecular target: Gal(b1-3)GlcNAc(b1-3)Gal(b1-4)GlcNAc(b1-3)Gal(b1-4)GlcNAc(b1-2)[Gal(b1-3)GlcNAc(b1-3)Gal(b1-4)GlcNAc(b1-3)Gal(b1-4)GlcNAc(b1-6)]Man(a1-6)[Gal(b1-3)GlcNAc(b1-3)Gal(b1-4)GlcNAc(b1-3)Gal(b1-4)GlcNAc(b1-2)Man(a1-3)]Man(b1-4)GlcNAc(b1-4)[Fuc(a1-6)]GlcNAc
Summary of the method: as §1

[32] = molecular target: Gal(b1-3)GlcNAc(b1-3)Gal(b1-4)GlcNAc(b1-6)[Gal(b1-3)GlcNAc(b1-3)]Gal(b1-4)Glc
Summary of the method: as §1

[33] = molecular target: Gal(b1-3)GlcNAc(b1-3)Gal(b1-4)[Fuc(a1-3)]GlcNAc
Summary of the method: as §1

[34] = molecular target: Gal(b1-3)GlcNAc(b1-3)Gal(b1-4)[Fuc(a1-3)]GlcNAc(b1-6)[Gal(b1-3)GlcNAc(b1-3)]Gal(b1-4)Glc
Summary of the method: as §1

[35] = molecular target: Gal(b1-3)GlcNAc(b1-3)GalNAc
Summary of the method: as §1

[36] = molecular target: Gal(b1-3)GlcNAc(b1-6)Gal(b1-4)GlcNAc
Summary of the method: as §1

[37] = molecular target: Gal(b1-3)GlcNAc(b1-6)GalNAc
Summary of the method: as §1

[38] = molecular target: Gal(b1-3)GlcNAc(b1-6)[Gal(b1-3)]GalNAc
Summary of the method: as §1

B1: PX14351B-bth-512-36-512 (Bacteroides thetaiotaomicron) (protein)
chain: ASETQQWKTLEDTRSALMGVYGLTRAALADNNTHWICGDLRKGDFTVYKRSDLQAVSDNELNKPYDLLKKVSNWRRFYAVINAASVFMEKAPRTVELDRSYSEQNLKYDIAQVRALRAFAYFYMVRIWGDVPLVTYSYDNGTFPSMPRTDAQTVLSYAKAELLTAIEDLPYQYGTQTNLYYGSYGAQWQGKLFNKLSAYSVLAHICAWQGNYAEAETYSAFIIDHASEINAKYTSIADLTSETGLFYSNASVKGSRILGFNFAHNDNEATQSGHLEQLTLAYPLVQKSYPEIYISKDSLFSIFTNFDDLRFGIIDTIKYSSYYVQNLNEETPVFSKIKIIQDGSAKDNDFGVFGSSIVFTRLEDITLLRAEALCALNRSTEAVSYLNMIRTNRGLREVSFKKDFGNNRESLIAEIFEERRRELMGEGWRWYDLVRRQKLMKDNEAFLRLISSGGIYWPVSEDIITANSQIEQNEFWK
For B1, the “glycan array binding signal (z-score)” value [1] was 0.114, the “glycan array binding signal (z-score)” value [2] was 1.15 and the “glycan array binding signal (z-score)” value [3] was 0.241. The “glycan array binding signal (z-score)” value [4] was -0.223, the “glycan array binding signal (z-score)” value [5] was -0.249 and the “glycan array binding signal (z-score)” value [6] was 1.09. For the same binder, the “glycan array binding signal (z-score)” value [7] was 0.952, the “glycan array binding signal (z-score)” value [8] was 0.8 and the “glycan array binding signal (z-score)” value [9] was 0.233. The “glycan array binding signal (z-score)” value [10] was -0.229, the “glycan array binding signal (z-score)” value [11] was -0.314 and the “glycan array binding signal (z-score)” value [12] was -0.294. For the same binder, the “glycan array binding signal (z-score)” value [13] was -0.062, the “glycan array binding signal (z-score)” value [14] was -0.184 and the “glycan array binding signal (z-score)” value [15] was 0.516. The “glycan array binding signal (z-score)” value [16] was -0.225, the “glycan array binding signal (z-score)” value [17] was -0.259 and the “glycan array binding signal (z-score)” value [18] was -0.378. For the same binder, the “glycan array binding signal (z-score)” value [19] was -0.231, the “glycan array binding signal (z-score)” value [20] was -0.32 and the “glycan array binding signal (z-score)” value [21] was 0.032. For the same binder, the “glycan array binding signal (z-score)” value [22] was -0.22, the “glycan array binding signal (z-score)” value [23] was -0.258 and the “glycan array binding signal (z-score)” value [24] was -0.132. For the same binder, the “glycan array binding signal (z-score)” value [25] was -0.288, the “glycan array binding signal (z-score)” value [26] was -0.101 and the “glycan array binding signal (z-score)” value [27] was -0.306. For the same binder, the “glycan array binding signal (z-score)” value [28] was -0.32, the “glycan array binding signal (z-score)” value [29] was 0.028 and the “glycan array binding signal (z-score)” value [30] was -0.024. The “glycan array binding signal (z-score)” value [31] was 0.145, the “glycan array binding signal (z-score)” value [32] was -0.282 and the “glycan array binding signal (z-score)” value [33] was -0.342. For the same binder, the “glycan array binding signal (z-score)” value [34] was -0.062, the “glycan array binding signal (z-score)” value [35] was -0.324 and the “glycan array binding signal (z-score)” value [36] was -0.289. For the same binder, the “glycan array binding signal (z-score)” value [37] was -0.231 and the “glycan array binding signal (z-score)” value [38] was -0.209.
